Holding throughout (test): DAPPL (digital affinity profiling via proximity ligation, sequencing)
What all share (conditions): 10 mM Tris-HCl pH 7.5, 50 mM NaCl, 1 mM DTT, 4% glycerol, room temperature, 30 min; GST-TFs on glutathione beads, 16-mer random dsDNA library, 0.1% …; high values mean tight binding; double strand, one strand shown; scale: fold enrichment (6-mer frequency, TF over GST control)

Protein sequences, listed by entry. Tags and fused reporters are not part of them. Lines headed by an entry give the natural chain unless they say otherwise; changes in a name come on top.
UniProt Q9Y603: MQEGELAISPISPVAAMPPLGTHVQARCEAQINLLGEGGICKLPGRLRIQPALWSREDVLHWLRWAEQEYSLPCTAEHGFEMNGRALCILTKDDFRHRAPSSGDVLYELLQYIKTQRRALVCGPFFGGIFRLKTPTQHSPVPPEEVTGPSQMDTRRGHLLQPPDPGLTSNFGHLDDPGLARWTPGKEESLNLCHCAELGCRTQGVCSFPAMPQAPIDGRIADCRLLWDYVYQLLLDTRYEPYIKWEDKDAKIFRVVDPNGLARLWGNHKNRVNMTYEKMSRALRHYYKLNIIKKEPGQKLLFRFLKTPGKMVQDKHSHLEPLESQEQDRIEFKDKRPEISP
UniProt P41212: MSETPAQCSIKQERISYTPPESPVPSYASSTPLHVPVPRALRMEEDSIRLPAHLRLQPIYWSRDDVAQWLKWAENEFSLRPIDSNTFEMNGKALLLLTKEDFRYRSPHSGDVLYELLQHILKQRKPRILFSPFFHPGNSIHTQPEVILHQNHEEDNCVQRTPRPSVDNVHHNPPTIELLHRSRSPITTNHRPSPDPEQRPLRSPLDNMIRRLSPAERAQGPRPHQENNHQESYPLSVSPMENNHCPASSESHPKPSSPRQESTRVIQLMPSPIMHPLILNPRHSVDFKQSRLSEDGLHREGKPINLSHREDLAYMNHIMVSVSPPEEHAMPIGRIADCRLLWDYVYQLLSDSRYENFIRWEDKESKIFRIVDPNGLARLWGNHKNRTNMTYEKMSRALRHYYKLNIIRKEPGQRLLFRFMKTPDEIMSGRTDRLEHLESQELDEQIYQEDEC

The target in one test is T1, ELF3 (UniProt P78545).
T1 sequence: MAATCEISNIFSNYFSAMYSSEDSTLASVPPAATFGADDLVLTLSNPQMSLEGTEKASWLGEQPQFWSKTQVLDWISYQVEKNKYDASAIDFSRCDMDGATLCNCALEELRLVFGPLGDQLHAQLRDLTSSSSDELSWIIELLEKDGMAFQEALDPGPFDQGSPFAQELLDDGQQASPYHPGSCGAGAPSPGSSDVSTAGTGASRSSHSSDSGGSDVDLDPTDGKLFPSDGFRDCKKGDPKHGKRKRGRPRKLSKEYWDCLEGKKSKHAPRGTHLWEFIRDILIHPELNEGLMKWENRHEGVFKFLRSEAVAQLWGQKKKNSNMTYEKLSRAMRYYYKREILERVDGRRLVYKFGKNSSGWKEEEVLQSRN

In a further test the target is ETV7 (UniProt Q9Y603).
Another test concerns the target ETV6 (UniProt P41212).

The entries are a selection whose mix differs from that of the whole data set. At the low end of the ranking, values are background and their order means little.

TGGGCG: the binding signal in the test with ELF3 worked out at 0.818; with ETV7, 0.988; with ETV6, 0.905.

For the sequence TCATCG, the figures for the binding signal with ELF3, with ETV7 and with ETV6 were 0.993, 0.97 and 0.975, respectively.

Regarding GAATTA, the binding signal with ELF3 came to 0.971; with ETV7 it was 1.06; with ETV6 it was 1.08.

With AGTTAC, the binding signal with ELF3 is 0.969; with ETV7 it was 0.98; with ETV6, 0.985.

Take AGCTGT: the binding signal was 0.917 with ELF3, 0.975 with ETV7 and 0.924 in the test with ETV6.

Consider GATAAC, for which the binding signal with ELF3 is 0.958; with ETV7, 0.905; in the test with ETV6, 0.843.

With GTACCA, the binding signal with ELF3 was found to be 0.985; with ETV7 it was 0.894; in the test with ETV6, 0.992.

As for AGGCAC, the binding signal amounted to 0.726 with ELF3, 0.872 with ETV7 and 0.885 with ETV6.

AGAGAA: the binding signal with ELF3 came to 0.896; with ETV7, 0.857; with ETV6 it was 0.828.

Regarding TTGAGA, the binding signal with ELF3 was found to be 0.834; in the test with ETV7, 0.807; with ETV6, 0.855.

Consider CACGGC, for which the values for the binding signal with ELF3, in the test with ETV7 and with ETV6 were 0.977, 0.976 and 1.05, respectively.

For the sequence GTCTAG, the binding signal with ELF3 turned out to be 0.894; with ETV7, 0.843; with ETV6, 0.808.

Turning to CCAAGT, the binding signal with ELF3 was 0.973; in the test with ETV7 it was 0.952; with ETV6, 0.927.

For the sequence GTTGAA, the results for the binding signal with ELF3, in the test with ETV7 and with ETV6 were 0.847, 0.946 and 0.799, respectively.

As for CTGTGT, the binding signal came out at 0.99 in the test with ELF3, 0.89 with ETV7 and 0.836 with ETV6.

CCGCGG: the figures for the binding signal in the test with ELF3, with ETV7 and with ETV6 were 0.835, 0.872 and 0.923, respectively.

In the case of GTTGGC, the binding signal is 0.72 with ELF3, 0.89 with ETV7 and 0.948 in the test with ETV6.

On to TTAGTG, for which the binding signal with ELF3 amounted to 0.93; with ETV7, 0.958; with ETV6, 0.917.

Regarding GGGCAT, the binding signal worked out at 0.719 in the test with ELF3, 0.836 with ETV7 and 0.872 with ETV6.

Take TCGTCG: the binding signal in the test with ELF3 was 0.86; with ETV7, 0.999; in the test with ETV6, 0.98.

Consider TTCGGG, for which the values for the binding signal with ELF3, with ETV7 and in the test with ETV6 were 0.992, 0.937 and 0.84, respectively.

Take CCAGAT: the binding signal with ELF3 was 0.963; with ETV7, 0.934; with ETV6, 0.857.

In the case of ATCCGT, the binding signal in the test with ELF3 was determined as 0.883; in the test with ETV7, 0.91; in the test with ETV6, 0.899.

As to ACGGTA, the binding signal with ELF3 was 0.948; with ETV7, 0.976; in the test with ETV6, 0.997.

For the sequence GTAGCG, the binding signal in the test with ELF3 stood at 0.833; with ETV7, 0.855; with ETV6 it was 0.977.

On to CCAAGA, for which the binding signal with ELF3 turned out to be 0.996; with ETV7, 0.883; in the test with ETV6, 0.885.

Regarding TGCCAT, the binding signal is 1.08 with ELF3, 1.09 in the test with ETV7 and 1.1 in the test with ETV6.

GTTCAG: the figures for the binding signal with ELF3, with ETV7 and with ETV6 were 0.856, 0.916 and 0.867, respectively.

Take CTGGGG: the binding signal was found to be 0.765 with ELF3, 0.956 in the test with ETV7 and 0.929 with ETV6.

For TGTGCG, the binding signal stood at 0.992 with ELF3, 0.997 in the test with ETV7 and 1.06 with ETV6.

Regarding GACCCA, the binding signal turned out to be 0.899 with ELF3, 0.854 with ETV7 and 0.867 with ETV6.

Turning to CGCAAT, the binding signal with ELF3 turned out to be 0.812; with ETV7, 0.948; with ETV6, 0.903.

In the case of AGGCTA, the binding signal is 0.881 in the test with ELF3, 0.946 with ETV7 and 0.9 in the test with ETV6.

Consider GTCGAC, for which the figures for the binding signal in the test with ELF3, in the test with ETV7 and with ETV6 were 0.96, 0.986 and 0.946, respectively.

Regarding CCGTAT, the binding signal is 0.943 with ELF3, 1.09 in the test with ETV7 and 1.24 with ETV6.

In the case of CATCAG, the binding signal amounted to 0.909 with ELF3, 0.985 with ETV7 and 0.867 in the test with ETV6.

On to TCATTG, for which the figures for the binding signal with ELF3, with ETV7 and with ETV6 were 0.874, 0.897 and 0.959, respectively.

CAGTTC: the binding signal with ELF3 is 0.911; in the test with ETV7, 0.91; with ETV6, 0.907.

On to GGAATA, for which the binding signal with ELF3 is 0.96; with ETV7, 0.939; with ETV6, 0.946.

As for GCAGCA, the binding signal with ELF3 came to 0.86; with ETV7 it was 0.89; with ETV6, 0.912.

Regarding GCAAAG, the binding signal with ELF3 worked out at 0.95; with ETV7, 0.994; with ETV6, 0.934.

With AGAAGG, the binding signal in the test with ELF3 came out at 0.757; in the test with ETV7, 0.769; with ETV6, 0.725.

For ATTCGG, the binding signal with ELF3 turned out to be 0.935; with ETV7 it was 0.935; with ETV6 it was 0.948.

Consider AGATCA, for which the values for the binding signal in the test with ELF3, with ETV7 and with ETV6 were 0.909, 0.853 and 0.854, respectively.

On to TTCAGA, for which the binding signal was 0.838 with ELF3, 0.855 in the test with ETV7 and 0.919 in the test with ETV6.

Consider AGCCTA, for which the binding signal in the test with ELF3 was determined as 0.905; with ETV7, 1.13; with ETV6, 0.969.

Turning to CAGACT, the binding signal turned out to be 1.04 in the test with ELF3, 0.913 with ETV7 and 0.995 in the test with ETV6.

Turning to CGCAAA, the results for the binding signal with ELF3, in the test with ETV7 and in the test with ETV6 were 1.13, 0.972 and 0.966, respectively.

AGAACT: the binding signal worked out at 0.857 with ELF3, 0.975 with ETV7 and 0.992 with ETV6.

Turning to ATTAGA, the results for the binding signal in the test with ELF3, with ETV7 and with ETV6 were 0.762, 0.897 and 0.869, respectively.

Take GCGAAG: the figures for the binding signal in the test with ELF3, in the test with ETV7 and in the test with ETV6 were 0.922, 0.973 and 0.836, respectively.

For AGCATG, the binding signal worked out at 0.946 with ELF3, 0.873 with ETV7 and 0.964 with ETV6.

As to CCCGCG, the binding signal with ELF3 was 0.887; in the test with ETV7, 1.03; with ETV6 it was 0.907.

In the case of TGGTCG, the binding signal with ELF3 was found to be 0.924; with ETV7 it was 0.935; with ETV6 it was 0.858.

Take CTCTAC: the binding signal with ELF3 was determined as 1.47; with ETV7, 1.28; with ETV6, 1.43.

With CGGACC, the binding signal was found to be 0.77 in the test with ELF3, 0.766 with ETV7 and 0.817 with ETV6.

As to AGACTC, the binding signal in the test with ELF3 amounted to 0.831; with ETV7, 0.889; in the test with ETV6, 0.85.

For CTAGAC, the binding signal in the test with ELF3 was 0.975; with ETV7, 0.88; with ETV6, 0.924.

TAAGAC: the binding signal with ELF3 is 0.869; with ETV7, 0.881; with ETV6, 0.857.

Consider ATCACG, for which the binding signal in the test with ELF3 came to 1.01; in the test with ETV7, 0.993; in the test with ETV6, 0.996.

GCCCTG: the figures for the binding signal with ELF3, with ETV7 and in the test with ETV6 were 0.904, 0.993 and 0.963, respectively.

In the case of GGGTAT, the binding signal with ELF3 was 0.937; in the test with ETV7 it was 1.02; with ETV6 it was 0.886.

For GTGCTG, the values for the binding signal with ELF3, with ETV7 and with ETV6 were 0.651, 0.914 and 0.894, respectively.

On to GCCAGA, for which the results for the binding signal with ELF3, with ETV7 and in the test with ETV6 were 0.627, 0.643 and 0.649, respectively.

With TCCGAG, the figures for the binding signal with ELF3, with ETV7 and with ETV6 were 0.857, 0.978 and 0.968, respectively.

TCCAGT: the binding signal with ELF3 turned out to be 0.608; with ETV7 it was 0.719; with ETV6 it was 0.648.

In the case of CATTAG, the binding signal in the test with ELF3 was determined as 0.871; in the test with ETV7, 0.981; with ETV6, 0.966.

Consider GACTCG, for which the binding signal came to 0.836 with ELF3, 0.854 with ETV7 and 0.848 in the test with ETV6.

Take GAATAG: the binding signal with ELF3 is 0.976; with ETV7, 0.997; with ETV6 it was 0.983.

With GATCTG, the binding signal in the test with ELF3 amounted to 0.931; with ETV7, 0.901; in the test with ETV6, 0.879.

As for GTGGAT, the binding signal with ELF3 was 0.96; with ETV7, 0.906; with ETV6, 0.959.

With GTGGTC, the binding signal was determined as 0.704 in the test with ELF3, 0.835 in the test with ETV7 and 0.78 with ETV6.

As to CCAGCT, the binding signal with ELF3 turned out to be 1.04; with ETV7, 0.997; with ETV6, 0.882.

For the sequence GCGACG, the binding signal with ELF3 amounted to 0.866; with ETV7, 0.921; with ETV6 it was 0.871.

AGCGAA: the binding signal in the test with ELF3 worked out at 0.96; with ETV7, 0.875; with ETV6 it was 0.886.

As to GTTATC, the binding signal with ELF3 turned out to be 0.893; in the test with ETV7, 0.989; with ETV6 it was 1.1.

For the sequence AGGACC, the binding signal with ELF3 turned out to be 0.898; with ETV7 it was 0.947; with ETV6, 1.02.

As for CCACCG, the binding signal with ELF3 is 0.941; with ETV7 it was 1.06; in the test with ETV6, 1.06.

With GCCGTC, the binding signal with ELF3 amounted to 1.17; in the test with ETV7, 1.03; with ETV6 it was 0.935.

Turning to CCTAGG, the binding signal with ELF3 came to 0.969; in the test with ETV7 it was 0.957; with ETV6, 0.931.

As for GCCGCA, the binding signal in the test with ELF3 was determined as 0.981; with ETV7, 0.991; with ETV6 it was 0.984.

Take CAGAAG: the binding signal was 0.72 with ELF3, 0.788 with ETV7 and 0.721 in the test with ETV6.

In the case of GATAAG, the binding signal with ELF3 was determined as 0.857; with ETV7 it was 0.874; in the test with ETV6, 0.887.

As for CGTCAT, the binding signal was determined as 0.933 with ELF3, 0.958 with ETV7 and 0.948 with ETV6.

Consider GACATG, for which the binding signal in the test with ELF3 was 0.996; in the test with ETV7, 1.03; with ETV6, 0.995.

Consider GTATTG, for which the results for the binding signal with ELF3, with ETV7 and in the test with ETV6 were 0.939, 0.981 and 0.99, respectively.

In the case of GACGTT, the binding signal in the test with ELF3 was 0.986; with ETV7 it was 0.991; with ETV6, 0.944.

For the sequence ACGCCA, the binding signal in the test with ELF3 is 0.841; with ETV7, 0.858; with ETV6 it was 0.834.

For GACTTA, the results for the binding signal with ELF3, with ETV7 and in the test with ETV6 were 0.912, 0.942 and 0.876, respectively.

AGATAT: the figures for the binding signal with ELF3, with ETV7 and with ETV6 were 0.919, 0.957 and 0.993, respectively.

Values taken from paper PMC7862700.
